{"source": "PubChem BioAssay AID743454 – Peter MacCallum Cancer Centre, 2014", "assay": "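Genes whose loss kills vorinostat-resistant colon cancer cells under vorinostat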 (primary screen)", "cells": "human HCT116-VR colon cancer cells, selected for vorinostat resistance", "reagent": "siRNA pool against human genes, 40 nM siRNA pool", "duration": "vorinostat for 24 h, read-out about 72 h after transfection", "challenge": "vorinostat at 2.5 µM final", "detection": "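Two measures, CellTiter-Fluor viability and luminescent caspase 3/7 activity, each as fold change against same-plate mock wells, mean of duplicates, then screen-wide robust z-score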", "scale": "viability robust z-score: higher = more viable cells than screen typical; caspase robust z-score: higher = more caspase 3/7 activity than screen typical", "hit rule": "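Hits are knock-downs in viability class RV1/RV2 or caspase class CA1/CA2, excluding ones that killed cells in the no-drug cell-count arm; hits then retested with single siRNAs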", "note": "The deposit covers about 18,000 reagents; below is a part drawn at random. 450 of them (2.5%) were called active. 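Single biological run; no consistent viability z cut-off exists, so the class columns, not z-scores, define the calls.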 No sequences are given here."}
{"gene knocked down": "STRADA", "viability hit class": "no change", "caspase hit class": "no change", "viability robust z-score": 0.11, "caspase robust z-score": -0.48, "call": "inactive"}
{"gene knocked down": "C9orf163", "viability hit class": "no change", "caspase hit class": "no change", "viability robust z-score": 0.76, "caspase robust z-score": 0.48, "call": "inactive"}
{"gene knocked down": "CHRM4", "viability hit class": "no change", "caspase hit class": "no change", "viability robust z-score": 0.54, "caspase robust z-score": -0.37, "call": "inactive"}
{"gene knocked down": "H4C6", "viability hit class": "no change", "caspase hit class": "no change", "viability robust z-score": -0.02, "caspase robust z-score": -1.34, "call": "inactive"}
{"gene knocked down": "ZNF833P", "viability hit class": "no change", "caspase hit class": "no change", "viability robust z-score": 0.78, "caspase robust z-score": -0.97, "call": "inactive"}
{"gene knocked down": "FLT4", "viability hit class": "no change", "caspase hit class": "no change", "viability robust z-score": -0.84, "caspase robust z-score": 1.07, "call": "inactive"}
{"gene knocked down": "AQP9", "viability hit class": "no change", "caspase hit class": "no change", "viability robust z-score": 0.45, "caspase robust z-score": 0.2, "call": "inactive"}
{"gene knocked down": "VDAC3", "viability hit class": "no change", "caspase hit class": "no change", "viability robust z-score": 0.86, "caspase robust z-score": -0.56, "call": "inactive"}
{"gene knocked down": "EHMT2", "viability hit class": "no change", "caspase hit class": "no change", "viability robust z-score": 0.9, "caspase robust z-score": 0.18, "call": "inactive"}
{"gene knocked down": "OR10T2", "viability hit class": "no change", "caspase hit class": "no change", "viability robust z-score": -1.56, "caspase robust z-score": 0.15, "call": "inactive"}
{"gene knocked down": "MMRN1", "viability hit class": "no change", "caspase hit class": "no change", "viability robust z-score": -0.1, "caspase robust z-score": -0.66, "call": "inactive"}
{"gene knocked down": "CLU", "viability hit class": "no change", "caspase hit class": "no change", "viability robust z-score": 0.78, "caspase robust z-score": 0.32, "call": "inactive"}
{"gene knocked down": "BABAM2", "viability hit class": "no change", "caspase hit class": "no change", "viability robust z-score": -0.66, "caspase robust z-score": 0.14, "call": "inactive"}
{"gene knocked down": "MTCH2", "viability hit class": "no change", "caspase hit class": "no change", "viability robust z-score": -0.21, "caspase robust z-score": -0.3, "call": "inactive"}
{"gene knocked down": "SNX18", "viability hit class": "no change", "caspase hit class": "no change", "viability robust z-score": -3.33, "caspase robust z-score": 0.24, "call": "inactive"}
{"gene knocked down": "RHOT2", "viability hit class": "no change", "caspase hit class": "no change", "viability robust z-score": 0.64, "caspase robust z-score": -0.08, "call": "inactive"}
{"gene knocked down": "SLC32A1", "viability hit class": "no change", "caspase hit class": "no change", "viability robust z-score": 0.32, "caspase robust z-score": 1.62, "call": "inactive"}
{"gene knocked down": "PEAR1", "viability hit class": "no change", "caspase hit class": "no change", "viability robust z-score": -0.3, "caspase robust z-score": 0.9, "call": "inactive"}
{"gene knocked down": "IFNA2", "viability hit class": "no change", "caspase hit class": "no change", "viability robust z-score": -0.34, "caspase robust z-score": -0.75, "call": "inactive"}
{"gene knocked down": "DLD", "viability hit class": "no change", "caspase hit class": "no change", "viability robust z-score": 0.62, "caspase robust z-score": 1.17, "call": "inactive"}
{"gene knocked down": "NKD1", "viability hit class": "no change", "caspase hit class": "no change", "viability robust z-score": -0.07, "caspase robust z-score": 1.29, "call": "inactive"}
{"gene knocked down": "KCNH6", "viability hit class": "no change", "caspase hit class": "no change", "viability robust z-score": -2.23, "caspase robust z-score": 2.76, "call": "inactive"}
{"gene knocked down": "SNRPN", "viability hit class": "no change", "caspase hit class": "no change", "viability robust z-score": -0.3, "caspase robust z-score": -0.24, "call": "inactive"}
{"gene knocked down": "SEC23IP", "viability hit class": "no change", "caspase hit class": "no change", "viability robust z-score": 0.44, "caspase robust z-score": -0.38, "call": "inactive"}
{"gene knocked down": "FOXN1", "viability hit class": "no change", "caspase hit class": "no change", "viability robust z-score": -0.4, "caspase robust z-score": 0.38, "call": "inactive"}
{"gene knocked down": "DBR1", "viability hit class": "no change", "caspase hit class": "no change", "viability robust z-score": -0.35, "caspase robust z-score": 0.7, "call": "inactive"}
{"gene knocked down": "HEXIM1", "viability hit class": "no change", "caspase hit class": "no change", "viability robust z-score": 0, "caspase robust z-score": -0.14, "call": "inactive"}
